# Percent effect of library compounds

A: 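Whole-cell growth test on Mycobacterium tuberculosis, read after 4 days in a medium based on cholesterol and the lipid DPPC; the read-out is not stated. Compounds at 50 µM. The record gives no direction; compounds that gave an IC50 in retests scored well above the rest, so higher reads as more growth inhibition. Of about 69,000 compounds tested this way, about 370 (0.54%) reached 50% or more in at least one test.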
B: 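Growth of Mycobacterium tuberculosis over 3 days (7H9 medium with glucose and tyloxapol); the read-out is not stated. Tested at 50 µM. Higher reads as more growth inhibition (inferred: compounds with an IC50 in retests scored well above the rest). Size under these conditions: about 69,000 compounds, about 760 of them at 50% or above in at least one test.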

Results are given as percent effect.
The record does not define 0% and 100%; most values in the screen are far below 50% and negative numbers occur (in some assays of this library far below -100).
The compounds are a random part of those screened.
Two or more numbers in one place are separate tests of the same structure; such repeats can differ widely.

Result for Cc1ccnc2c1NC(=O)CN2C(=O)CCC(F)(F)F was A: 5.823%; B: -12.17% and 4.269%. COc1cccc(N2C(=O)CC3(CCNCC3)C2=O)c1.Cl gave A: 6.633%; B: 16.22%. Result for Cc1ccc([C@@H]2CN(C(=O)CCc3cc(Cl)no3)C[C@H]2N(C)C)cc1 was A: -21.6%; B: -3.226%. For O=C(NCCCn1cncn1)N1CCCCCC1 the result was A: -1.231%; B: 3.225%. Cc1cscc1-c1nc(C2CCOC2)no1 (stereo unspecified) gave A: -20.01% and -7.568%; B: 20.72%. CC(=O)NCCCSC1CCCN(c2ccccc2F)C1=O (stereo unspecified) gave A: -0.9162%; B: 0.594% and 2.494%. Result for O=C(NS(=O)(=O)c1cnn(-c2ccccc2F)c1)c1ccoc1 was A: -21.99%; B: -24.75% and -8.585%.

With [H][C@@]12CCN(Cc3c(C)noc3C)C[C@@]1([H])O[C@H](c1nccs1)C2 the screen gave A: -14.42%; B: -10.6%. For c1ccc(-c2nn3c(CN4CCOCC4)nnc3s2)nc1 the result was A: -18.06%; B: -30.97%. With O=C(c1cc[nH]n1)N1CCc2ncnc(N3CCSCC3)c2CC1 the screen gave A: 2.045%; B: 0.6685% and -14.04%. Result for CC1CCN(Cc2cnc(S(=O)(=O)CC3CC3)n2CC2CCCO2)CC1 (stereo unspecified) was A: -12.86%; B: -17.07% and -20.43%. Cc1nc(N2CCCC2)nc(C)c1NS(C)(=O)=O read A: 5.865%; B: 10.66% and -1.401%. For Cc1ccc(C(=O)N2CCc3c(CNc4ncccn4)cncc3C2)o1.Cl the result was A: -16.57%; B: 10.39%. Cc1ccc(CN2Cc3nnn(C)c3C(COCCN(C)C)C2)s1.O=C(O)C(F)(F)F.O=C(O)C(F)(F)F (stereo unspecified) read A: -12.5%; B: -1.528%.

Result for Cc1noc(C2CCC3(CCN(C(=O)c4ncccn4)CC3)O2)n1 (stereo unspecified) was A: 7.716%; B: 1.101%. c1cc(CNCC2CNc3ccnn3C2)cc(Cn2cccn2)c1 (stereo unspecified) gave A: 0.9794%; B: -2.624%. With Cc1noc(Cl)c1CCC(=O)N1CCN(c2ccccc2)CC1 the screen gave A: -13.5%; B: 12.44%. With Cc1ccc(CNC(CN2CCN(C)CC2)c2ccccc2)cc1 (stereo unspecified) the screen gave A: 12.67%; B: 29.58%. CCCN1CCN(C(=O)CCn2nc(C(F)(F)F)c(Br)c2C)CC1 read A: -23.2%; B: 2.408%. For Cc1noc(C)c1CN1CCN(CCN(C)C)c2ncccc2C1.O=C(O)C(F)(F)F.O=C(O)C(F)(F)F.O=C(O)C(F)(F)F the result was A: -9.265%; B: -35.06% and -9.753%. Result for [H][C@]12CN(C3CCC3)CCN1C(=O)N(C1CCCCC1)C2 was A: 1.785%; B: -8.49% and 0.9508%.

Result for COc1ccc(C(=O)N2CCC(Nc3cccnn3)CC2)cn1 was A: -8.196%; B: -28.44%. [H][C@]12CC[C@](O)(CC1)C(COC)N2C(=O)N1CCOCC1 (stereo partly specified) read A: -17.2%; B: -2.438%. Result for CS(=O)(=O)c1nnc(NC(=O)CCc2cccs2)[nH]1 was A: -20.79%; B: -13.05%. With CN1CSC[C@H]1C(=O)N1CCC(CCc2ccccc2)CC1 the screen gave A: -9.69%; B: 14.92% and 19.92%. For Cc1csc(N(C)C(=O)C2CC(=O)N(CCc3ccccc3)C2)n1 (stereo unspecified) the result was A: -22.4%; B: -10.48%. COCCc1noc(C2CCN(C(=O)Nc3cccs3)CC2)n1 read A: 21.25%; B: 32.33%. With CC(C)=CCC1(C(=O)O)CCCN(CCC(=O)NC2CC2)C1 (stereo unspecified) the screen gave A: 10.13%; B: 1.128%.

Cc1nn(C)c(C)c1C1CCCN1C(=O)Cc1cn2ccsc2n1 (stereo unspecified) gave A: 4.885%; B: -3.382%. Result for COCC1CN(Cc2ccoc2)Cc2cn(C)nc21 (stereo unspecified) was A: -11.33%; B: 18.46%. With O=C(O)C(F)(F)F.[H][C@@]12CCN(C3CCOCC3)C[C@]1([H])O[C@@H](C(=O)N1CCOCC1)C2 the screen gave A: -15.39%; B: -27.26%. CCc1nnc2n1CCN(C(=O)c1ccc(C(F)(F)F)nc1C)C2 read A: 0.7681%; B: 5.865%. Cc1nc(C)n(CC2CCCN2CC(=O)N(C)Cc2ccc(C)o2)n1 (stereo unspecified) gave A: 6.043%; B: -2.118% and -11.94%. COc1ccc(CCCC(=O)NCc2c(C)noc2C)cc1F gave A: -27.09%; B: -28.06%. CC(C)(C)c1cc(C(=O)NCCn2nc3ccccn3c2=O)[nH]n1 read A: -6.297%; B: -5.566%.

Repeated from the top, 3 entries:

| SMILES | A | B |
|---|---|---|
| `Cc1ccnc2c1NC(=O)CN2C(=O)CCC(F)(F)F` | 5.823% | -12.17% and 4.269% |
| `COc1cccc(N2C(=O)CC3(CCNCC3)C2=O)c1.Cl` | 6.633% | 16.22% |
| `Cc1ccc([C@@H]2CN(C(=O)CCc3cc(Cl)no3)C[C@H]2N(C)C)cc1` | -21.6% | -3.226% |

The values are deposited in ChEMBL (CHEMBL3988442, “University of Dundee, Small-Polar-MMV Screening Library” (2021)).